Values joined by “and” are separate entries in the source; they are usually repeats but may differ in a detail not shown here. Equal entries are not always repeated. The amount applied is not stated for every result.
Assay: Dosimetry: absorbed dose estimated with OLINDA from mouse biodistribution data
Format: in vivo, human
Conditions: for Absorbed Dose / Effective Dose: OLINDA, adult human male
[1] = Target Organ: Urinary Bladder Wall

CC12CNCCNCC(NC(=O)CCCC(=O)NCCCC[C@H](NC(=O)CCOCCOCCOCCn3cc(-c4cccc(NC(=O)NCCCC[C@H](NC(=O)N[C@@H](CCC(=O)O)C(=O)O)C(=O)O)c4)nn3)C(=O)N[C@@H](CCCCNC(=O)Cc3ccc(I)cc3)C(=O)O)(CNCCNC1)CNCCNC2.[67Cu+2] [[^67Cu]Cu-RPS-085]
Absorbed Dose (Target Organ: Adrenals): 7.0 mSv/MBq | Effective Dose (Target Organ: Adrenals): 18.8 mrem/mCi | Absorbed Dose (Target Organ: Brain): 0.0 mSv/MBq | Effective Dose (Target Organ: Brain): 0.0111 mrem/mCi | Absorbed Dose (Target Organ: Breasts): 0.3 mSv/MBq | Effective Dose (Target Organ: Breasts): 0.732 mrem/mCi | Absorbed Dose (Target Organ: Gallbladder Wall): 4.6 mSv/MBq | Effective Dose (Target Organ: Gallbladder Wall): 12.3 mrem/mCi | Absorbed Dose (Target Organ: Heart Wall): 4.6 mSv/MBq | Effective Dose (Target Organ: Heart Wall): 12.3 mrem/mCi | Effective Dose (Target Organ: Kidneys): 2390 mrem/mCi | Absorbed Dose (Target Organ: Kidneys, over 192 h): 884 mSv/MBq and 884.3 mSv/MBq | Absorbed Dose (Target Organ: LLI Wall): 64.8 mSv/MBq | Effective Dose (Target Organ: LLI Wall): 175 mrem/mCi | Absorbed Dose (Target Organ: Liver): 12.9 mSv/MBq | Effective Dose (Target Organ: Liver): 34.9 mrem/mCi | Absorbed Dose (Target Organ: Lungs): 2.6 mSv/MBq | Effective Dose (Target Organ: Lungs): 7.02 mrem/mCi | Absorbed Dose (Target Organ: Muscle): 3.0 mSv/MBq | Effective Dose (Target Organ: Muscle): 8.15 mrem/mCi | Absorbed Dose (Target Organ: Osteogenic Cells): 3.4 mSv/MBq | Effective Dose (Target Organ: Osteogenic Cells): 9.22 mrem/mCi | Absorbed Dose (Target Organ: Ovaries): 1.6 mSv/MBq | Effective Dose (Target Organ: Ovaries): 4.45 mrem/mCi | Absorbed Dose (Target Organ: Pancreas): 8.4 mSv/MBq | Effective Dose (Target Organ: Pancreas): 22.7 mrem/mCi | Absorbed Dose (Target Organ: Red Marrow): 2.4 mSv/MBq | Effective Dose (Target Organ: Red Marrow): 6.45 mrem/mCi | Absorbed Dose (Target Organ: Skin): 2.5 mSv/MBq | Effective Dose (Target Organ: Skin): 6.68 mrem/mCi | Absorbed Dose (Target Organ: Small Intestine): 3.3 mSv/MBq | Effective Dose (Target Organ: Small Intestine): 8.97 mrem/mCi | Absorbed Dose (Target Organ: Spleen): 11.6 mSv/MBq | Effective Dose (Target Organ: Spleen): 31.4 mrem/mCi | Absorbed Dose (Target Organ: Stomach Wall): 2.7 mSv/MBq | Effective Dose (Target Organ: Stomach Wall): 7.3 mrem/mCi | Absorbed Dose (Target Organ: Thymus): 0.3 mSv/MBq | Effective Dose (Target Organ: Thymus): 0.757 mrem/mCi | Absorbed Dose (Target Organ: Thyroid): 0.1 mSv/MBq | Effective Dose (Target Organ: Thyroid): 0.138 mrem/mCi | Absorbed Dose (Target Organ: Total Body (whole body)): 14.5 mSv/MBq | Effective Dose (Target Organ: Total Body): 39.2 mrem/mCi | Effective Dose (Target Organ: Tumor): 38700 mrem/mCi | Absorbed Dose (Target Organ: Tumor, over 192 h): 14319 mSv/MBq and 14319.0 mSv/MBq | Absorbed Dose (Target Organ: ULI Wall): 22.1 mSv/MBq | Effective Dose (Target Organ: ULI Wall): 59.7 mrem/mCi | Absorbed Dose [1]: 8.0 mSv/MBq | Effective Dose [1]: 21.7 mrem/mCi | Absorbed Dose (Target Organ: Uterus): 1.0 mSv/MBq | Effective Dose (Target Organ: Uterus): 2.8 mrem/mCi | reduction in whole body absorbed dose relative to [177Lu]Lu-RPS-063 (in vivo): 5 fold | absorbed dose in any other tissue (not tumor, kidneys) (over 192 h): ≤ 65 mSv/MBq

— patent publication US20230165979A1, “COPPER-CONTAINING THERAGNOSTIC COMPOSITIONS AND METHODS OF USE” (Cornell University, priority 2020, published 2023)
